Assay results as given in patent US4801612A, “Method of inhibiting inflammatory response” (Regents of the University of California, priority 1986, dated 1989).

Legend:
rat hind paw = test: Heat-induced paw edema and protein extravasation (Evans blue), hind paw in 58° C. water for 5 min.; format: in vivo; conditions: doses of Table I
Procedure: Male albino rats weighing 200 to 280 g were anesthetized with sodium pentobarbital, 60 mg/kg i.p., and a right jugular vein cannulated for drug injections. Human/rat CRF (at various dosages described below) or saline, and Evans blue dye, 50 mg/kg, were injected intravenously 10 and 3 min., respectively, before immersion of the hind paw in 48° C. or 58° C. water for 5 min. The frequency of paw withdrawal from the water was then counted.
At the end of the exposure period, the animals were sacrificed and the dorsal skin, between the calcaneal process and phalanges, was removed from both paws, weighed, and each placed in 4 ml of formamide for 3 days at room temperature. The extracted Evans blue was quantified colorimetrically at 600 nm with readings from the untreated paw skin used as the blank values.
Protein extravasation was measured by injecting a dye into a blood compartment of the animal. The dye binds to blood proteins and when the permeability of the tissue is increased by the heat, the dye leaks into the skin of the paw. The skin of the paw was excised, the dye extracted, and the amount of dye in the skin was measured to provide an index of the skin permeability changes that accompany the heat damage. […] In a manner analogous to that described above for administration of CRF, sauvagine was administered and paws of the anesthetized recipients exposed to water at 58° C. […]

rat saphenous nerve = test: Neurogenic plasma extravasation (NPE) by antidromic stimulation of the rat saphenous nerve; format: in vivo; conditions: injected shortly before electrical
Description: Kiang and Wei, Eur. J. Pharmacol. 114, 111 (1985).
To determine if the CRF effect was secondary to release of pituitary or adrenal hormones (which involves ACTH in the pathway), the activity of CRF was examined in hypophysectomized and adrenalectomized rats. […] The surgical procedures associated with sham-operations and adrenalectomy made animals more sensitive to electrically stimulated NPE. […] Thus, the inhibitory activity of CRF appears to be independent of its stimulatory effects on pituitary and adrenal function and consequently appears to be independent of its previously known property of elevating ACTH levels. Nor does the inflammation inhibition of CRF appear to be associated with its previously known ability to stimulate β-endorphinactivities.
As has been known, CRF and related peptides produce hypotension in anesthetized and unanesthetized animals. […] Neither does the inflammation inhibition of the present invention appear to have any associaton with the hypotensive properties of CRF and its analogs.

CN1CC[C@]23c4c5ccc(O)c4O[C@H]2[C@@H](O)C=C[C@H]3[C@H]1C5.O=S(=O)(O)O [morphine SO4, morphine sulfate, reference compound]
inhibition of edema (in words) (rat hind paw): neither morphine nor dexamethasone inhibits either edema
inhibition of protein extravasation / dye leakage (in words) (rat hind paw): neither morphine nor dexamethasone inhibits
inhibition of NPE (rat saphenous nerve): inhibits NPE
